From PubChem BioAssay AID248 (DTP/NCI, 2004) come the findings set out here.

In the assay the test system is L1210 leukemia ip in BDF1 mice, survival T/C. The assay is described as follows: NCI In Vivo Anticancer Drug Screen. Data for tumor model L1210 Leukemia (intraperitoneal) in B6D2F1 (BDF1) mice. Conditions: T/C endpoint: mean survival time, higher T/C = longer survival.
The mark [1] stands for this setting: dose: 200.0 mg/kg/injection, schedule: Q04DX003 (ip), vehicle: saline.
The mark [2] stands for this setting: dose: 400.0 mg/kg/injection, schedule: Q04DX003 (ip), vehicle: saline.
Where [3] appears, read: dose: 400.0 mg/kg/injection, schedule: Q01DX009 (ip), vehicle: Klucel (hydroxypropylcellulose) (HPC).
[4] abbreviates: dose: 100.0 mg/kg/injection, schedule: Q01DX009 (ip), vehicle: saline with Tween-80.
The mark [5] stands for this setting: dose: 200.0 mg/kg/injection, schedule: Q04DX002 (ip), vehicle: saline with Tween-80.
Setting [6] is: dose: 400.0 mg/kg/injection, schedule: Q04DX002 (ip), vehicle: saline with Tween-80.
Where [7] appears, read: dose: 50.0 mg/kg/injection, schedule: Q04DX003 (ip), vehicle: saline.
Setting [8] is: dose: 100.0 mg/kg/injection, schedule: Q04DX003 (ip), vehicle: saline.

Molecules are shown by their SMILES. The list shows only some results of the screen, not a fair sample: it is rich in T/C values a quarter to a half above the control, in often repeated tests (any T/C) and in doses without a T/C. Other doses and runs of a compound stand elsewhere. T/C is the treated group as % of the vehicle group. Some doses have a count of surviving animals in place of a T/C: the source files T/C as zero there, which appears to mark a toxic dose or a test without result, not a measured value. Some doses without a T/C left all or most animals alive at the check, yet need not have been tolerated: survival well below the control is almost never listed, so the zero probably covers shortened survival too. Counts of survivors are from the toxicity check (mostly the fifth day) where no day follows; animals may have died later. Schedule codes are those of the source, taken here to give the interval after Q, in days (D) or hours (H), and the number of doses after X. Some entries were tested several times; the values are given in rising order. For survival time, this PubChem deposit counts one and a half times the control or more as active, and values a quarter to a half above the control carry no call in these data; other NCI protocols may use other cut-offs. Some T/C values are followed by the survivors on the day toxicity was checked, most often the fifth; where none is given, no animal had died by that day.

With `C#CCOC1CCCCO1` (stereo not drawn), the survivor count is 3 of 6 (dose: 150.0 mg/kg/injection, schedule: Q01DX009 (ip), vehicle: saline); 3 of 6 under setting [1]; 1 of 6 (dose: 225.0 mg/kg/injection, schedule: Q01DX009 (ip), vehicle: saline); 0 of 6 (dose: 335.0 mg/kg/injection, schedule: Q01DX009 (ip), vehicle: saline); 0 of 6 under setting [2].
In the case of `O=C(O)c1c(Br)c(Br)c(Br)c(Br)c1-c1c2ccc(=O)c(O)c-2oc2c(O)c(O)ccc12`, the survivor count was 6 of 6 under setting [1] and 3 of 6 under setting [2].
Turning to `COC(=O)/C=C/NC(=O)c1ccccc1C(=O)OC`, the survivor count (dose: 100.0 mg/kg/injection, schedule: Q01DX009 (ip), vehicle: Klucel (hydroxypropylcellulose) (HPC)) was 6 of 6; the survivor count (dose: 200.0 mg/kg/injection, schedule: Q01DX009 (ip), vehicle: Klucel (hydroxypropylcellulose) (HPC)) is listed as 6 of 6; the survivor count under setting [3] was 6 of 6.
As for `CCOC(=O)c1ccc(N(CC(O)CN)S(=O)(=O)c2ccc(C)cc2)cc1` (stereo not drawn), the survivor count under setting [4] is 0 of 6 and 4 of 6; the survivor count (dose: 200.0 mg/kg/injection, schedule: Q01DX009 (ip), vehicle: saline with Tween-80) is 0 of 6; the survivor count (dose: 400.0 mg/kg/injection, schedule: Q01DX009 (ip), vehicle: saline with Tween-80) is recorded as 0 of 6.
In the case of `Cn1c(=O)n(C)c2ccccc21`, the survivor count (dose: 200.0 mg/kg/injection, schedule: Q01DX009 (ip), vehicle: saline) is 0 of 6 and the survivor count under setting [2] is given as 2 of 6.
For the compound `C[n+]1ccccc1/C=C/c1csc2ccccc12`, the survivor count reads like this: (dose: 100.0 mg/kg/injection, schedule: Q01DX001 (ip), vehicle: carboxymethylcellulose (CMC)) 0 of 4; (dose: 200.0 mg/kg/injection, schedule: Q01DX001 (ip), vehicle: carboxymethylcellulose (CMC)) 0 of 4; (dose: 400.0 mg/kg/injection, schedule: Q01DX001 (ip), vehicle: carboxymethylcellulose (CMC)) 1 of 4.
As for `O=NN(CCCl)C(=O)N[C@H]1CCC[C@@H](C(=O)O)C1`, the T/C is, setting by setting: (dose: 8.0 mg/kg/injection, schedule: Q01DX001 (ip), vehicle: Klucel (hydroxypropylcellulose) (HPC)) 132 % of control; (dose: 12.0 mg/kg/injection, schedule: Q01DX001 (ip), vehicle: Klucel (hydroxypropylcellulose) (HPC)) 145 % of control. For the same compound, the survivor count by setting is: (dose: 90.0 mg/kg/injection, schedule: Q01DX001 (ip), vehicle: Klucel (hydroxypropylcellulose) (HPC)) 8 of 10; (dose: 133.0 mg/kg/injection, schedule: Q01DX001 (ip), vehicle: Klucel (hydroxypropylcellulose) (HPC)) 10 of 10; (dose: 200.0 mg/kg/injection, schedule: Q01DX001 (ip), vehicle: Klucel (hydroxypropylcellulose) (HPC)) 9 of 10.
Regarding `CC(=O)Nc1c([N+](=O)[O-])cc2c3c(cccc13)C=C2`, the survivor count under setting [4] is recorded as 6 of 6.
As to `O=C(CBr)c1cccc2c1ccc1ccccc12`, the survivor count reads like this: (dose: 12.5 mg/kg/injection, schedule: Q01DX009 (ip), vehicle: other) 3 of 3; (dose: 25.0 mg/kg/injection, schedule: Q01DX009 (ip), vehicle: other) 3 of 3; (dose: 50.0 mg/kg/injection, schedule: Q01DX005 (ip), vehicle: other) 0 of 3; (dose: 100.0 mg/kg/injection, schedule: Q04DX002 (ip), vehicle: other) 0 of 3; (dose: 200.0 mg/kg/injection, schedule: Q04DX002 (ip), vehicle: other) 0 of 3; (dose: 400.0 mg/kg/injection, schedule: Q04DX002 (ip), vehicle: other) 0 of 3.
Turning to `Cc1ccccc1SC(=O)Nc1cccc(Cl)c1Cl`, the survivor count under setting [3] is 2 of 6.
`CCCc1ccccc1O`: the survivor count (dose: 400.0 mg/kg/injection, schedule: Q04DX003 (ip), vehicle: alcohol) was 1 of 6.
Regarding `CCC(CO)NC(=O)C1C=C2c3cccc4c3c(cn4C)CC2N(C)C1` (stereo not drawn), the survivor count under setting [3] is 3 of 6.
`CNC(=S)Nc1c(C)cc(C)cc1C`: the survivor count is, setting by setting: under setting [5], 6 of 6; under setting [6], 1 of 6 and 1 of 3.
Turning to `O=C(Nc1cccc(Cl)c1)SCCSC(=O)Nc1cccc(Cl)c1`, the survivor count (dose: 400.0 mg/kg/injection, schedule: Q01DX001 (ip), vehicle: saline with Tween-80) is 6 of 6.
For `Cc1ccc(SCCCN)cc1`, the survivor count (dose: 300.0 mg/kg/injection, schedule: Q01DX001 (ip), vehicle: saline) is 1 of 6.
On to `CO[C@@H]([CH2][Hg][S]C#N)[C@@H]([CH2][Hg][S]C#N)OC`, for which the survivor count by setting is: (dose: 6.25 mg/kg/injection, schedule: Q04DX003 (ip), vehicle: saline sonified) 6 of 6; (dose: 100.0 mg/kg/injection, schedule: Q04DX003 (ip), vehicle: Klucel (hydroxypropylcellulose) (HPC)) 0 of 6; (dose: 200.0 mg/kg/injection, schedule: Q04DX003 (ip), vehicle: Klucel (hydroxypropylcellulose) (HPC)) 0 of 6; (dose: 400.0 mg/kg/injection, schedule: Q04DX003 (ip), vehicle: Klucel (hydroxypropylcellulose) (HPC)) 0 of 6.
Turning to `O=C(NCc1cnccn1)c1ccco1`, where the note is “dose: 400.0 mg/kg/injection, schedule: Q01DX005 (ip), vehicle: saline”, the survivor count was 1 of 4.
Take `CCOC(=O)N(Cc1ccccc1)C1CC1`: the survivor count under setting [7] was 4 of 4.
With `CCN(CC)Cc1cc(Nc2nc(NC3CCC(N(C)C)CC3)c3ccccc3n2)ccc1OC` (stereo not drawn), the survivor count under setting [8] is recorded as 5 of 6, the survivor count under setting [1] was 0 of 6 and the survivor count under setting [2] is given as 1 of 6.
For the compound `C[N+](C)(C)/N=C/C1=C(Cl)CCCC1`, the survivor count was 3 of 3 (dose: 25.0 mg/kg/injection, schedule: Q04DX002 (ip), vehicle: Klucel (hydroxypropylcellulose) (HPC)); 0 of 3 (dose: 50.0 mg/kg/injection, schedule: Q04DX002 (ip), vehicle: Klucel (hydroxypropylcellulose) (HPC)); 0 of 3 (dose: 100.0 mg/kg/injection, schedule: Q04DX002 (ip), vehicle: Klucel (hydroxypropylcellulose) (HPC)); 0 of 6 (dose: 150.0 mg/kg/injection, schedule: Q01DX001 (ip), vehicle: carboxymethylcellulose (CMC)); 0 of 6 (dose: 300.0 mg/kg/injection, schedule: Q01DX001 (ip), vehicle: carboxymethylcellulose (CMC)).
Take `O=C(O)c1cccc(Cl)c1F`: under setting [5], the T/C is 129 % of control [2 of 3 alive]. For the same compound, the survivor count under setting [6] is on record as 0 of 3.
As for `COC1OC(C)C(O)C(O)[CH]1[Hg][O]C(C)=O` (stereo not drawn), the survivor count by setting is: (dose: 12.5 mg/kg/injection, schedule: Q01DX009 (ip), vehicle: saline) 2 of 6; (dose: 20.0 mg/kg/injection, schedule: Q01DX001 (ip), vehicle: saline) 0 of 4; (dose: 25.0 mg/kg/injection, schedule: Q01DX009 (ip), vehicle: saline) 0 of 6; (dose: 25.0 mg/kg/injection, schedule: Q04DX003 (ip), vehicle: saline) 0 of 6; (dose: 40.0 mg/kg/injection, schedule: Q01DX001 (ip), vehicle: saline) 0 of 4; (dose: 50.0 mg/kg/injection, schedule: Q01DX001 (ip), vehicle: saline) 0 of 4. The survivor count is, setting by setting: under setting [7], 0 of 6; (dose: 80.0 mg/kg/injection, schedule: Q01DX001 (ip), vehicle: saline) 0 of 4; (dose: 100.0 mg/kg/injection, schedule: Q01DX001 (ip), vehicle: saline) 0 of 4; under setting [8], 0 of 6; (dose: 200.0 mg/kg/injection, schedule: Q01DX001 (ip), vehicle: saline) 0 of 4; under setting [1], 0 of 6. Also, the survivor count by setting is: (dose: 400.0 mg/kg/injection, schedule: Q01DX001 (ip), vehicle: saline) 0 of 4; under setting [2], 0 of 6.
For the compound `CCS/C(N)=N\N`, under setting [8], the survivor count is listed as 0 of 6.
